Measured values taken from PubChem BioAssay AID504327 (National Center for Advancing Translational Sciences (NCATS), 2011).
Several values for one entry are separate records, joined by “and”; a condition that tells them apart may be missing. Equal entries are not always repeated. Among all 390,000 compounds or so, about 820 (0.21%) were called active. Inconclusive results, whose numbers are uncertain, are shown with a selection of clear calls. The call rests on the fitted dose curve; in most records, active means well fitted inhibition curve with a large enough effect; inconclusive means small, poorly fitted or top-dose-only effect, or another doubt; inactive means no such curve, though single readings can be large or run the other way. A potency beside an inconclusive call is a rough fit, not a confirmed value.

Protein sequences, listed by entry. Tags and fused reporters are not part of them.
UniProt Q92830, whole entry, looked up: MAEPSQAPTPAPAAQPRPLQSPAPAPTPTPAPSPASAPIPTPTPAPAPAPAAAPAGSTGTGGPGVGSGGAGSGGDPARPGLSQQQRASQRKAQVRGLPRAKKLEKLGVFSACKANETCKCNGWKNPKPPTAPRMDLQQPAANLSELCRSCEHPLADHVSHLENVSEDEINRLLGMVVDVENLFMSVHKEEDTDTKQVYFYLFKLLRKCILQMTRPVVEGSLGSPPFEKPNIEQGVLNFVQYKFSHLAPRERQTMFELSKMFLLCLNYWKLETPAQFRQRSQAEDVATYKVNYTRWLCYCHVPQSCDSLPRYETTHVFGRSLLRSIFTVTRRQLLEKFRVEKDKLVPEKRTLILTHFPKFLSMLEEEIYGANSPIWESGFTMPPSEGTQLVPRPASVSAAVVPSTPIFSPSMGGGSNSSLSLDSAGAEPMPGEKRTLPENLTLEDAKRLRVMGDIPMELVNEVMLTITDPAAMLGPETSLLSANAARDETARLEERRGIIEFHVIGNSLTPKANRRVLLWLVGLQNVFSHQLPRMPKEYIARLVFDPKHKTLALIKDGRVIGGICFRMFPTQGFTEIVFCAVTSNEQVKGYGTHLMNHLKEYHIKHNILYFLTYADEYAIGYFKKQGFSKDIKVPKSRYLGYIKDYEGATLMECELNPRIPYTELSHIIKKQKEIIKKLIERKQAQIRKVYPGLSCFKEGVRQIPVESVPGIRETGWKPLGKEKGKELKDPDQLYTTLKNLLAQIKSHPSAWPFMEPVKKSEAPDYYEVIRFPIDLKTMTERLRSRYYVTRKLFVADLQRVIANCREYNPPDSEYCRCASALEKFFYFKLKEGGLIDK

Each compound was assayed against Histone acetyltransferase KAT2A (Homo sapiens) (UniProt Q92830) (assay: qHTS Assay for Inhibitors of GCN5L2). Details: GCN5L2 HAT assay, ThioGlo1 CoA-SH fluorescence; series mostly up to 58.9 µM.
Source text: Histone acetyltransferase (HAT) enzymes transfer a […] group from acetyl-coenzyme A to the epsilon-amino group of conserved lysine residues of N-terminal histone tails. Acetylation results in charge neutralization of this positively charged amino acid, decreasing interactions with the […] backbone and making the DNA more accessible for transcription. HATs have been recognized as an emerging drug target for treatment of cancer, diabetes, asthma, chronic obstructive pulmonary disease, cardiac disease, and viral infection. Protein identified with HAT activity include the […] like 2 (GCN5L2, a.ka. Histone acetyltransferase KAT2A) which acetylates histone H3 at Lys9, 14, 18, 13, and to lesser extent histones H4 and H2B. This activates transcription of the gene by modulating chromatin structure and installing the acetyllysine recognition mark for bromodomain-containing coactivator proteins.
A quantitative high throughput screen was developed to identify small molecule inhibitors. The assay is based on the principle that it measures formation of reduced CoA with the pro-fluorescent maleimide derivative ThioGlo1 that becomes fluorescent upon reaction with the free thiol of CoA.
A large number of artifacts are expected in this primary screen, compounded by the assay format (fluorescent artifacts) and by the high top concentration tested for each substance. This BioAssay data deposition should be used with caution, and counterscreen and secondary assay validation is essential since very few actives from the primary screen are expected to be true inhibitors of GCN5L2.
[2] Yasgar, et al. Compound Management for Quantitative High-Throughput Screening. JALA. 2008 Apr;13(2):79-89.
[3] Inglese, et al. Quantitative high-throughput screening: a titration-based approach that efficiently identifies biological activities in large chemical libraries. Proc Natl Acad Sci. 1;103(31):11473-8. 2006. PMID: 16864780
NIH Molecular Libraries Probe Production Network [MLPCN]
NIH Chemical Genomics Center [NCGC]
Structural Genomics Consortium (SGC)
To each well of a 1,536w plate, 3ul of GCN5L2 (final concentration 20nM, in 50mM HEPES, 0.1mM EDTA (pH 7.5), 0.01% Tween-20 buffer) are added using a Kalypsys dispenser. Only buffer is added to some wells as a control. A Kalypsys pin-tool transferred 23nl of library compound solution in DMSO to each well, as well as the control inhibit garcinol. . Following a 15 min incubation of enzyme with compounds at room temperature, 1ul mixture of ThioGlo1 (50uM final), H3(1-25) peptide (75uM final), and Acetyl-CoA (70uM final) is added. Plates are read immediately on the ViewLux (PerkinElmer) (Ex340nm/Em540nm) for a 0 min read, incubated for 20 min at room temperature, and read again on the ViewLux with the same settings. The initial read was carried out to identify compounds that are potentially fluorescent.
Potency means the concentration at half of the fitted maximal effect.

| SMILES | Potency |
| --- | --- |
| Fc1ccc(Nc2ccnc(-c3ccccc3C(F)(F)F)n2)cc1 | inconclusive: 31.6 µM [inhibitor, partial curve] |
| COc1ccc(S(=O)(=O)N2CCN(c3ccccc3F)CC2)cc1-c1noc(C)n1 | active: 15.8 µM |
| O=C(COc1ccc([N+](=O)[O-])cc1)Nc1cccnc1 | inactive |
| O=C(COc1ccc(Cl)cc1)OCC(=O)N1CCCC1 | inactive |
| CCN(CC)CCCC(C)Nc1c2ccc(Cl)cc2nc2ccc(OC)cc12 (stereo not drawn) | inconclusive: 14.1 µM [inhibitor, partial curve, poor fit] and inconclusive: 28.2 µM [inhibitor, single point] |
| C/C(=N\NC(=S)NCC(C)(C)C)c1cc(F)cc(F)c1O | inactive |
| COC(=O)c1ccccc1NC(=O)NN1CCN(C)CC1 | inconclusive: 0.794 µM [inhibitor, single point] |
| CCN1CCSc2ccc(C(=O)NC(C)c3ccccc3)cc21 (stereo not drawn) | inconclusive: 31.6 µM [inhibitor, single point] |
| Cc1cccc(N2CCN(C(=O)c3cc(S(=O)(=O)N4CCOCC4)cn3C)CC2)c1C | inconclusive: 22.4 µM [inhibitor, single point] |
| Nc1ccc2nn(-c3ccccc3)nc2c1 | inconclusive: 39.8 µM [inhibitor, single point] |
| CCC1CCCCN1CCCCOc1cccc(Cl)c1 (stereo not drawn) | inactive |
| Cn1cc(S(=O)(=O)N2CCOCC2)cc1C(=O)NCCc1ccccc1 | inconclusive: 0.891 µM [inhibitor, single point] |
| Cc1cc(-c2ccc(C(=O)O)s2)cnc1N | inactive |
| O=C(NCC1CCCO1)C(c1cccnc1)N(C(=O)Cc1cccs1)c1ccccc1 (stereo not drawn) | inconclusive: 7.08 µM [inhibitor, single point] |
| N#Cc1c(NC(=O)c2cnn3cccnc23)sc2c1CCCC2 | inactive |
| O=C(N/N=C/c1ccncc1)c1cc2ccccc2o1 | inactive |
| OC1(CC#CCN2CCCCC2)c2ccccc2-c2ccccc21 | inactive |
| CCN1CCN(C(=O)c2cc3c(=O)n(C)c4ccccc4c3n2C)CC1 | inactive |
| Cc1c(C(C)C)c(=O)n(-c2ccc(S(=O)(=O)NC(C)C)cc2)n1C | inconclusive: 22.4 µM [inhibitor, single point] |
| N#CC1=C(N)Oc2cc(O)ccc2C1c1ccccc1 (stereo not drawn) | inactive |
| CCCC(=O)Nc1ccc(C)c(O)c1 | inconclusive: 39.8 µM [inhibitor, single point] |
| S=C(N/N=C/c1cccc2ccccc12)Nc1cccc(Cl)c1 | inactive |
| COc1ccc(Nc2nc(N(C)c3ccccc3)nc(N)c2[N+](=O)[O-])cc1 | inconclusive: 0.891 µM [inhibitor, single point] |

Copied from the entries so far, two compounds:

| SMILES | Potency |
| --- | --- |
| C/C(=N\NC(=S)NCC(C)(C)C)c1cc(F)cc(F)c1O | inactive |
| COC(=O)c1ccccc1NC(=O)NN1CCN(C)CC1 | inconclusive: 0.794 µM [inhibitor, single point] |
